The results in this text go back to paper PMC9806564.

By UniProt entry, the sequences of proteins in these tests, tags left out. Where a name states a change or a piece, a line headed by the entry shows the natural chain unless it says otherwise.
UniProt Q9SQI2: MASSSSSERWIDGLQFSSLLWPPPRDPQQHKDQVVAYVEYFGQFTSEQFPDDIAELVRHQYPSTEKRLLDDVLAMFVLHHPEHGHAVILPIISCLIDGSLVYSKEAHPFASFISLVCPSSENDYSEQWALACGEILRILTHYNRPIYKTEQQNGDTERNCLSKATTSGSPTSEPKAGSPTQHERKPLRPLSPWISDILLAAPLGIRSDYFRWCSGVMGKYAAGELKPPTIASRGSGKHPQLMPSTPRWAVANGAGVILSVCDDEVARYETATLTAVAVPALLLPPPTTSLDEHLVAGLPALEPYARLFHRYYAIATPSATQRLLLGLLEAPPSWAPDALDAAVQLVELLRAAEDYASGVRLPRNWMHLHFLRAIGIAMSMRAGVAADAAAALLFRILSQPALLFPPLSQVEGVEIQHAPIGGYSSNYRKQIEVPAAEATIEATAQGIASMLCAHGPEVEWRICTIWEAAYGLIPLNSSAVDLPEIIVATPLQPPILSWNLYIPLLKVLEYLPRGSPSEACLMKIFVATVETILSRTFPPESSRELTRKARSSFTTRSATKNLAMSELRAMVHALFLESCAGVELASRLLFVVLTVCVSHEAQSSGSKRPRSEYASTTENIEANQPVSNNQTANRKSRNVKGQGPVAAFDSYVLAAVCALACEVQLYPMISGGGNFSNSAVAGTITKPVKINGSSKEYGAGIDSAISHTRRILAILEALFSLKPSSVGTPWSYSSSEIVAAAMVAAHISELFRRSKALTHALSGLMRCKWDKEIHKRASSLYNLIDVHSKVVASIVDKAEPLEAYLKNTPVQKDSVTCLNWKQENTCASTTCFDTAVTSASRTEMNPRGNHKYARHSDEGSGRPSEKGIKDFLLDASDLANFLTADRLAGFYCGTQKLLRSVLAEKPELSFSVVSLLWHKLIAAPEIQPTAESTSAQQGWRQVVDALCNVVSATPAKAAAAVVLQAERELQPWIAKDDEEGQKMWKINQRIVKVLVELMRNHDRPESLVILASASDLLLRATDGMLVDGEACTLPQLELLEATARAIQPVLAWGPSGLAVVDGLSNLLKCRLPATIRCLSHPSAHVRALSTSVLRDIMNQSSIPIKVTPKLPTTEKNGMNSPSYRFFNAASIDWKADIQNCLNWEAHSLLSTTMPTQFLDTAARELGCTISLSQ
UniProt O81223: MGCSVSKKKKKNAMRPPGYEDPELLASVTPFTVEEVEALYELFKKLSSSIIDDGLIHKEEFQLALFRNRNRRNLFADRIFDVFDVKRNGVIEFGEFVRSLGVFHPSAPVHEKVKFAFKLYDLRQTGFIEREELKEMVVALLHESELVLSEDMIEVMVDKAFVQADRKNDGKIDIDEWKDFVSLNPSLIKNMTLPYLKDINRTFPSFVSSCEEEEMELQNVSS

Assay [1] addresses GIGANTEA, BiFC fusion (Arabidopsis thaliana) (UniProt Q9SQI2). As to the kind of experiment: split reporter; BiFC in N. benthamiana leaves, transient expression, YFP signals under a confocal microscope; leaves untreated or treated with NaCl or Ca2+ (Supplemental Figure S6, Figure 6D, Supplemental Figure S10).
For assay [2], the target named is GIGANTEA, HA-tagged (GI-HA) (Arabidopsis thaliana) (UniProt Q9SQI2). As to the kind of experiment: co-IP; total proteins of N. benthamiana leaves transiently expressing both proteins; GI-HA precipitated with anti-HA on protein A agarose, SOS3 detected with anti-MYC; leaves untreated or treated with 100 mM NaCl for 8 h or 3 mM CaCl2; extraction buffer 100 mM Tris-HCl pH 7.5, 150 mM NaCl, 0.5% NP-40, 1 mM EDTA, 3 mM DTT; 4°C.

No constants are given. Whether binding was seen depends on the method and setting. Binding seen in cells or lysates may run through a third protein.

For the substance “mutant protein SOS3-1, BiFC fusion (from UniProt O81223)”, the binding entry in assay [1] is reported as “no binding”.

As to “mutant protein SOS3-1, MYC-tagged (MYC-SOS3-1) (from UniProt O81223)”, in assay [2], the binding entry was “no binding”.
